From article PMC2700083, “A covalent peptide inhibitor of RGS4 identified in a focused one-bead, one compound library screen” (BMC Pharmacology, 2009)
These are yes or no findings as the source states them, for the method shown. Some results given as binding are weak or reduced against the parent protein; the word gives no strength. For some of these results: Sequences can lack the tags named with a protein.

The chains behind the UniProt entries cited, without tags or fusion partners. Where a name states a change or a piece, a line headed by the entry shows the natural chain unless it says otherwise. A line that says so, or that is headed by a name, gives the form on record, which may keep a tag or linker. Residues count along the entry.
MBP-RGS4Δ51N, wild type, biotinylated (P49799, residues 52-205): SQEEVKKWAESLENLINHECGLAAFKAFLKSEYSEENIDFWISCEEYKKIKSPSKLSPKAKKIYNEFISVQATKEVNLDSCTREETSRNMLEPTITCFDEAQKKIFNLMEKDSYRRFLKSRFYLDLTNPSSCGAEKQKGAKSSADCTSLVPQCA
MBP-RGS4Δ51N C95A (P49799, form named): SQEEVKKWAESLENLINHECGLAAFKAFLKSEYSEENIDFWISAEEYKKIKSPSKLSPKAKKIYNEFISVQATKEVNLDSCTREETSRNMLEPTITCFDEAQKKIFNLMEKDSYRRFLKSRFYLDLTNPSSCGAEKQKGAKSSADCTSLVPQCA
MBP-RGS4Δ51N C148A (P49799, form named): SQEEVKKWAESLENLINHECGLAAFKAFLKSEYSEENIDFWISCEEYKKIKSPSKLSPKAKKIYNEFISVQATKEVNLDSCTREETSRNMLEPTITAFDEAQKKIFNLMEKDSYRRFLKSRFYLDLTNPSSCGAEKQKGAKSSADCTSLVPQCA
MBP-RGS4Δ51N C132A (P49799, form named): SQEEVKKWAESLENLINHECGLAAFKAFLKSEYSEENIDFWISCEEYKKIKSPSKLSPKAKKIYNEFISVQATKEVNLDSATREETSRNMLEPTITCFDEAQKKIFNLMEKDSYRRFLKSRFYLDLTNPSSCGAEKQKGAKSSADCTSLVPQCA
MBP-RGS4Δ51N C71A (P49799, form named): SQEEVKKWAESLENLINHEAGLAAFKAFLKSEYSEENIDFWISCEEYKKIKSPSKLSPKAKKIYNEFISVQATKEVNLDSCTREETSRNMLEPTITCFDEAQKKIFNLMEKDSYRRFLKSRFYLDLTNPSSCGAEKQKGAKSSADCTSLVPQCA
UniProt P59215: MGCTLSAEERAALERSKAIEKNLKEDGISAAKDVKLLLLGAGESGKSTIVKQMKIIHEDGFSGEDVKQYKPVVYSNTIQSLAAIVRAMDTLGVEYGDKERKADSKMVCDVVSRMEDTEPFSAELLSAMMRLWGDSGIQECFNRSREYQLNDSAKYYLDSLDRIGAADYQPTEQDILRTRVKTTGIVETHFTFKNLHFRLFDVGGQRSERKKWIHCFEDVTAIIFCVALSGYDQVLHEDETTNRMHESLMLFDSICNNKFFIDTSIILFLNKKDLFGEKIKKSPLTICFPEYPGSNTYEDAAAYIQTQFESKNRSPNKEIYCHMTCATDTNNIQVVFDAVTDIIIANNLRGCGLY

Experiments:
[1] = molecular target: T1, RGS8 full length, MBP fusion (human) (UniProt P57771); assay: FCPIA (flow cytometry protein interaction assay, Luminex beads); dose response curves for 5nd with different RGS proteins on beads and labeled Gαo; curves constrained to 100% and 0%; both purified
T1 sequence (chain, biotin (sites not stated)): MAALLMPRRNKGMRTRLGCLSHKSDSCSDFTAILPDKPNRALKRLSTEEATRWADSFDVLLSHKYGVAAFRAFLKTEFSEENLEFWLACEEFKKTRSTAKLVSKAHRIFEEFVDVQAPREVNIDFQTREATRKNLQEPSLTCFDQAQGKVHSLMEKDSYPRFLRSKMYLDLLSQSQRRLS

[2] = molecular target: T2, RGS7 RGS domain (aa: 305–453), MBP fusion (human) (UniProt P49802); assay: as above
T2 sequence: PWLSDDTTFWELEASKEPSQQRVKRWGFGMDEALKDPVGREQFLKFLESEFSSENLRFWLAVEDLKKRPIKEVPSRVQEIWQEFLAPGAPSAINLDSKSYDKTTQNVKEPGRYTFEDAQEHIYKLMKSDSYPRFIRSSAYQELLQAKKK

[3] = molecular target: T3, RGS19ΔC11 (amino acids 1–209), MBP fusion (human) (UniProt P49795); assay: as above
T3 sequence: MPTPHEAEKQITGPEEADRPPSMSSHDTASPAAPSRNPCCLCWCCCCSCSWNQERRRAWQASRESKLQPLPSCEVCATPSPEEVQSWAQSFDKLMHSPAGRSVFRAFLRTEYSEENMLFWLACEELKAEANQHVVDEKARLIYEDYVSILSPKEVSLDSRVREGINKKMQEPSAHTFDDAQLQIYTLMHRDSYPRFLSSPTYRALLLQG

[4] = molecular target: T4, RGS16 full length, MBP fusion (human) (UniProt O15492); assay: as above
T4 sequence: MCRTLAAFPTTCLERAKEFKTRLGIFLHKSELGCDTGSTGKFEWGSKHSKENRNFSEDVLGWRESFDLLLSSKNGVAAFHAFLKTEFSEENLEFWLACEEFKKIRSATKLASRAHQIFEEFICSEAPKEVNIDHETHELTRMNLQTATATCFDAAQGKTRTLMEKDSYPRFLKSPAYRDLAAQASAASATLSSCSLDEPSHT

[5] = molecular target: MBP-RGS4Δ51N, wild type, biotinylated (UniProt P49799); assay: as above
[6] = molecular target: MBP-RGS4Δ51N, wild type, biotinylated (UniProt P49799); assay: FCPIA (flow cytometry protein interaction assay, Luminex beads); competition at one peptide concentration (50 μM unless the cell says otherwise); 5 nM wild type RGS4-biotin on avidin beads, 25 nM Gαo-Alexa Fluor 532, with AMF (AlCl3, MgCl2, NaF and GDP); both purified
[7] = molecular target: T1, RGS8 full length, MBP fusion (human); assay: FCPIA (flow cytometry protein interaction assay, Luminex beads); RGS-biotin on avidin beads treated with 5nd (100 μM) or 5nm (100 μM), not washed, then Gαo binding read (whether the 5nm samples were washed is not stated); both purified
[8] = molecular target: MBP-RGS4Δ51N, wild type, biotinylated (UniProt P49799); assay: as above
MBP-RGS4Δ51N C95A = MBP-RGS4Δ51N C95A (UniProt P49799); assay: FCPIA (flow cytometry protein interaction assay, Luminex beads); dose curves of 5nd on RGS4 cysteine mutants (5 nM, or 20 nM for the mutants with no Cys in the domain or the C-terminus) and labeled Gαo; curves constrained to 100% and 0%; both purified
MBP-RGS4Δ51N C148A = MBP-RGS4Δ51N C148A (UniProt P49799); assay: as above
MBP-RGS4Δ51N C132A = MBP-RGS4Δ51N C132A (UniProt P49799); assay: as above
MBP-RGS4Δ51N C71A = MBP-RGS4Δ51N C71A (UniProt P49799); assay: as above
[9] = molecular target: MBP-RGS4Δ51N, wild type, biotinylated (UniProt P49799); assay: as above

Measured: binding

Gαo, Alexa Fluor 532-labeled (from UniProt P59215 1-354)
binds: all assays above
